The source of these data is the supplement of paper PMC9233669.

One data set concerns biotinyl-Phe-oxazolone. Nature of the data set: self-aminoacylation, catalytic enhancement (BFO) (fold over background); higher = more active; k-Seq, kA / k0A0; sequences stand for … in GGGAAUGGAUCCACAUCUACGAAUUC…UUCACUGCAGACUUGACGAAGCUG
The procedure, abridged: (§1)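 Mutagenized RNA pools with a 21-nt variable region (0.43 μM) reacted with each biotinyl-aminoacyl-oxazolone at 2–1250 μM. Reactions ran in 50 μL HEPES/NaCl/KCl/MgCl2/CaCl2 buffer with 5% acetonitrile, pH 6.9–7.0, for 90 minutes at room temperature. Streptavidin-captured RNA was quantified by triplicate qPCR and Illumina sequencing, and per-sequence fraction reacted was fit to a pseudo-first-order model with 1000 bootstraps. Catalytic enhancement is median kA divided by the uncatalyzed rate, the low-activity peak of a bimodal Gaussian fit.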

Another data set has as its system biotinyl-Leu-oxazolone. Nature of the data set: self-aminoacylation, catalytic enhancement (BLO) (fold over background); higher = more active; k-Seq, kA / k0A0; sequences stand for … in GGGAAUGGAUCCACAUCUACGAAUUC…UUCACUGCAGACUUGACGAAGCUG
The gist of the method: as §1

The next data set has as its system biotinyl-Ile-oxazolone. As to the kind of experiment: self-aminoacylation, catalytic enhancement (BIO) (fold over background); higher = more active; k-Seq, kA / k0A0; sequences stand for … in GGGAAUGGAUCCACAUCUACGAAUUC…UUCACUGCAGACUUGACGAAGCUG
The gist of the method: as §1

The next data set relates to biotinyl-Val-oxazolone. Nature of the data set: self-aminoacylation, catalytic enhancement (BVO) (fold over background); higher = more active; k-Seq, kA / k0A0; sequences stand for … in GGGAAUGGAUCCACAUCUACGAAUUC…UUCACUGCAGACUUGACGAAGCUG
The gist of the method: as §1

The subject of a further data set is biotinyl-Trp-oxazolone. As to the kind of experiment: self-aminoacylation, catalytic enhancement (BWO) (fold over background); higher = more active; k-Seq, kA / k0A0; sequences stand for … in GGGAAUGGAUCCACAUCUACGAAUUC…UUCACUGCAGACUUGACGAAGCUG
The procedure, abridged:
as §1

In the next data set the test system is biotinyl-Met-oxazolone. Nature of the data set: self-aminoacylation, catalytic enhancement (BMO) (fold over background); higher = more active; k-Seq, kA / k0A0; sequences stand for … in GGGAAUGGAUCCACAUCUACGAAUUC…UUCACUGCAGACUUGACGAAGCUG
The procedure, abridged: as §1

This sample is rich in variants without activity.

With “CUAUGUCAAACAAUCGGUCUG [Fam1A.1 aminoacylation ribozyme variant]”, the self-aminoacylation in the data set on biotinyl-Phe-oxazolone is 1.09; in the data set with biotinyl-Leu-oxazolone, 0.942; in the data set with biotinyl-Ile-oxazolone it was 0.914; in the data set on biotinyl-Val-oxazolone, 0.988; in the data set with biotinyl-Trp-oxazolone, 1.05; in the data set with biotinyl-Met-oxazolone, 0.887.

With “CUACUUCAAACAAUUGGUCUG [Fam1A.1 aminoacylation ribozyme variant]”, the self-aminoacylation in the data set on biotinyl-Phe-oxazolone was 1.55; in the data set on biotinyl-Leu-oxazolone it was 0.76; with biotinyl-Ile-oxazolone it was 0.866; with biotinyl-Val-oxazolone it was 0.816; in the data set on biotinyl-Trp-oxazolone it was 1.06; in the data set with biotinyl-Met-oxazolone it was 0.77.

On to “AAGUUUACUAAUAAUCGCAAG [Fam3.1 aminoacylation ribozyme variant]”, for which the self-aminoacylation came to 1.58 in the data set with biotinyl-Phe-oxazolone; 1 with biotinyl-Leu-oxazolone; 1.29 with biotinyl-Ile-oxazolone; 1.3 in the data set with biotinyl-Val-oxazolone; 1.22 in the data set with biotinyl-Trp-oxazolone; 1.4 with biotinyl-Met-oxazolone.

Turning to “AUUACCUUGGUCAGCGAGUGA [Fam2.1 aminoacylation ribozyme variant]”, the self-aminoacylation was 21.5 in the data set with biotinyl-Phe-oxazolone; 5.38 in the data set with biotinyl-Leu-oxazolone; 3.26 in the data set on biotinyl-Ile-oxazolone; 3.08 in the data set with biotinyl-Val-oxazolone; 6.84 in the data set on biotinyl-Trp-oxazolone; 5.05 in the data set on biotinyl-Met-oxazolone.

With “CUACUUCAAAGAAUCGGGCUG [Fam1A.1 aminoacylation ribozyme variant]”, the self-aminoacylation stood at 0.928 with biotinyl-Phe-oxazolone; 1.24 in the data set on biotinyl-Leu-oxazolone; 1.34 with biotinyl-Ile-oxazolone; 1.17 in the data set on biotinyl-Val-oxazolone; 1.76 in the data set on biotinyl-Trp-oxazolone; 1.02 with biotinyl-Met-oxazolone.

For “AUUCACCCUGGUCAUCGGGUG [Fam2.2 aminoacylation ribozyme variant]”, the self-aminoacylation in the data set with biotinyl-Phe-oxazolone amounted to 71; in the data set with biotinyl-Leu-oxazolone it was 11.5; in the data set on biotinyl-Ile-oxazolone, 5.16; in the data set with biotinyl-Val-oxazolone, 5.5; with biotinyl-Trp-oxazolone, 10.6; in the data set with biotinyl-Met-oxazolone, 10.6.

In the case of “AAUACCCUGGUCGUCGAGUGA [Fam2.1 aminoacylation ribozyme variant]”, the self-aminoacylation amounted to 0.434 with biotinyl-Phe-oxazolone; 0.857 in the data set on biotinyl-Leu-oxazolone; 0.776 in the data set with biotinyl-Ile-oxazolone; 0.796 in the data set on biotinyl-Val-oxazolone; 0.531 in the data set with biotinyl-Trp-oxazolone; 0.516 in the data set on biotinyl-Met-oxazolone.

In the case of “AAGUUUGCUAAUAGUAGGAAG [Fam3.1 aminoacylation ribozyme variant]”, the self-aminoacylation in the data set on biotinyl-Phe-oxazolone was 1.25; with biotinyl-Leu-oxazolone, 1; in the data set with biotinyl-Ile-oxazolone it was 1.03; in the data set on biotinyl-Val-oxazolone, 1.12; with biotinyl-Trp-oxazolone, 1.54; in the data set on biotinyl-Met-oxazolone it was 1.03.

“AAGUUAGCUAAUAGUCGCGAG [Fam3.1 aminoacylation ribozyme variant]”: the self-aminoacylation in the data set on biotinyl-Phe-oxazolone came to 2.29; in the data set on biotinyl-Leu-oxazolone it was 2.09; in the data set on biotinyl-Ile-oxazolone, 1.71; with biotinyl-Val-oxazolone, 1.57; in the data set with biotinyl-Trp-oxazolone, 2.24; in the data set on biotinyl-Met-oxazolone, 1.52.

On to “CUACUUAAAACAAUCGGUCUC [Fam1A.1 aminoacylation ribozyme variant]”, for which the self-aminoacylation with biotinyl-Phe-oxazolone is 0.577; in the data set on biotinyl-Leu-oxazolone, 0.617; in the data set on biotinyl-Ile-oxazolone, 0.669; in the data set with biotinyl-Val-oxazolone, 0.777; with biotinyl-Trp-oxazolone it was 0.691; with biotinyl-Met-oxazolone, 0.612.

For “CUAUUUCAAAAAAUCGGUCUG [Fam1A.1 aminoacylation ribozyme variant]”, the self-aminoacylation turned out to be 2.31 with biotinyl-Phe-oxazolone; 1.18 in the data set with biotinyl-Leu-oxazolone; 1.13 with biotinyl-Ile-oxazolone; 0.85 in the data set on biotinyl-Val-oxazolone; 1.73 in the data set on biotinyl-Trp-oxazolone; 1 in the data set on biotinyl-Met-oxazolone.

On to “CUACUUCAUUCAAUCGGUCUG [Fam1A.1 aminoacylation ribozyme variant]”, for which the self-aminoacylation is 0.781 in the data set on biotinyl-Phe-oxazolone; 0.609 with biotinyl-Leu-oxazolone; 0.654 in the data set on biotinyl-Ile-oxazolone; 0.626 in the data set on biotinyl-Val-oxazolone; 0.475 in the data set with biotinyl-Trp-oxazolone; 0.775 in the data set with biotinyl-Met-oxazolone.

For “ACGUUGGCUAAUAGUCGCAAG [Fam3.1 aminoacylation ribozyme variant]”, the self-aminoacylation worked out at 1.63 in the data set with biotinyl-Phe-oxazolone; 1.77 with biotinyl-Leu-oxazolone; 1.55 with biotinyl-Ile-oxazolone; 1.22 in the data set with biotinyl-Val-oxazolone; 1.55 in the data set with biotinyl-Trp-oxazolone; 1.61 in the data set on biotinyl-Met-oxazolone.

Take “CCACACAUCAAGCAAUUGGUC [Fam1B.1 aminoacylation ribozyme variant]”: the self-aminoacylation with biotinyl-Phe-oxazolone was determined as 0.913; in the data set on biotinyl-Leu-oxazolone, 0.873; with biotinyl-Ile-oxazolone, 0.921; in the data set on biotinyl-Val-oxazolone it was 0.829; in the data set on biotinyl-Trp-oxazolone it was 0.782; in the data set on biotinyl-Met-oxazolone it was 0.667.

“ACCCACUUCAAGCAAUCGGUC [Fam1B.1 aminoacylation ribozyme variant]”: the self-aminoacylation with biotinyl-Phe-oxazolone turned out to be 23.3; in the data set on biotinyl-Leu-oxazolone, 1.37; in the data set on biotinyl-Ile-oxazolone it was 1.11; in the data set with biotinyl-Val-oxazolone, 1.29; in the data set with biotinyl-Trp-oxazolone it was 15.2; in the data set with biotinyl-Met-oxazolone, 1.15.

As for “CCACACUUGAAGCACUCGGUC [Fam1B.1 aminoacylation ribozyme variant]”, the self-aminoacylation is 1.05 in the data set with biotinyl-Phe-oxazolone; 1.12 with biotinyl-Leu-oxazolone; 1.29 in the data set on biotinyl-Ile-oxazolone; 1.63 in the data set on biotinyl-Val-oxazolone; 1.51 with biotinyl-Trp-oxazolone; 0.82 in the data set on biotinyl-Met-oxazolone.

In the case of “CUACUUCAAACUCUCGGUCUG [Fam1A.1 aminoacylation ribozyme variant]”, the self-aminoacylation in the data set with biotinyl-Phe-oxazolone is 0.697; in the data set on biotinyl-Leu-oxazolone, 1.02; with biotinyl-Ile-oxazolone, 1.21; with biotinyl-Val-oxazolone, 1.29; in the data set with biotinyl-Trp-oxazolone, 1.14; with biotinyl-Met-oxazolone, 1.01.

In the case of “AAGUUUGCUAAUAGACCCAAG [Fam3.1 aminoacylation ribozyme variant]”, the self-aminoacylation in the data set with biotinyl-Phe-oxazolone was 1.03; in the data set on biotinyl-Leu-oxazolone it was 0.502; with biotinyl-Ile-oxazolone, 0.672; in the data set on biotinyl-Val-oxazolone it was 0.736; in the data set on biotinyl-Trp-oxazolone, 0.477; in the data set on biotinyl-Met-oxazolone, 0.928.

For the sequence “CUACUUCAAAACAUCGGUCUG [Fam1A.1 aminoacylation ribozyme variant]”, the self-aminoacylation in the data set on biotinyl-Phe-oxazolone is 0.686; in the data set with biotinyl-Leu-oxazolone it was 0.818; in the data set on biotinyl-Ile-oxazolone it was 0.94; in the data set with biotinyl-Val-oxazolone, 0.887; in the data set on biotinyl-Trp-oxazolone, 1.07; in the data set on biotinyl-Met-oxazolone, 0.897.

“AUUCACCUAGGUCAUCAGGUU [Fam2.2 aminoacylation ribozyme variant]”: the self-aminoacylation in the data set on biotinyl-Phe-oxazolone was 0.535; in the data set with biotinyl-Leu-oxazolone, 0.783; in the data set on biotinyl-Ile-oxazolone it was 0.885; in the data set with biotinyl-Val-oxazolone it was 0.86; with biotinyl-Trp-oxazolone it was 0.326; with biotinyl-Met-oxazolone, 0.863.

Regarding “CAACACUUCAAGCAAUCGAUC [Fam1B.1 aminoacylation ribozyme variant]”, the self-aminoacylation in the data set with biotinyl-Phe-oxazolone was 1.62; in the data set on biotinyl-Leu-oxazolone, 0.584; in the data set with biotinyl-Ile-oxazolone, 0.615; in the data set with biotinyl-Val-oxazolone, 0.658; in the data set on biotinyl-Trp-oxazolone, 0.721; with biotinyl-Met-oxazolone it was 0.462.

As to “AGGUUUUCUAAUAGUCGCAAG [Fam3.1 aminoacylation ribozyme variant]”, the self-aminoacylation was 2.83 with biotinyl-Phe-oxazolone; 1.79 in the data set on biotinyl-Leu-oxazolone; 1.86 in the data set on biotinyl-Ile-oxazolone; 1.52 in the data set with biotinyl-Val-oxazolone; 1.62 in the data set with biotinyl-Trp-oxazolone; 1.59 with biotinyl-Met-oxazolone.

Regarding “CCACACAUCACGCAAUCGGUC [Fam1B.1 aminoacylation ribozyme variant]”, the self-aminoacylation in the data set on biotinyl-Phe-oxazolone worked out at 0.984; in the data set on biotinyl-Leu-oxazolone, 1.01; in the data set with biotinyl-Ile-oxazolone, 1.01; with biotinyl-Val-oxazolone, 1.27; with biotinyl-Trp-oxazolone it was 0.873; with biotinyl-Met-oxazolone, 0.877.
